These results are taken from patent US20060153925A1, “Novel solid pharmaceutical composition comprising amisulpride” (Sanofi-Aventis, priority 2003, published 2006).

This data set is described as follows: bitterness of amisulpride quantified by a panel of 6 individuals. Particulars: tablet. Here is the method: In order to be able to quantify the magnitude of this bitterness, a panel of 6 individuals made it possible to find that the bitterness of amisulpride is detected with a tablet containing 1 mg of amisulpride that can be released in the mouth. This bitterness becomes unacceptable when the tablet contains 8 mg of amisulpride that can be released in the mouth.

As to `CCN1CCCC1CNC(=O)c1cc(S(=O)(=O)CC)c(N)cc1OC` (racemic) [amisulpride, 4-amino-N-[(1-ethyl-2-pyrrolidin-yl)methyl]-5-(ethylsulfonyl)-2-methoxybenzamide], the “amount of amisulpride releasable in the mouth at which bitterness becomes unacceptable” value came out at 8 mg and the “amount of amisulpride releasable in the mouth at which bitterness is detected” value came to 1 mg.
